From the supplement of paper PMC10403144
This is one part of the list.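 Rule for the calls: active = mitochondrial OCR inhibition above 30% at 1 uM; inactive = 30% or less.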 Many values rest on one well or one pass, so single values are uncertain.

Test system: Toxoplasma gondii RH tachyzoites
Assay: inhibition of mitochondrial O2 consumption rate (% inhibition (relative to pre-injection OCR and atovaquone/antimycin A control)); higher = stronger ETC inhibition
Details: 1 µM; injection port (sequential injection order): A

O=C(Nc1nnc(-c2ccc(Cl)s2)o1)c1ccc(Cl)s1 was tested. Which “inhibition of mitochondrial O2 consumption rate” value (from here on “inhibition”) did it give?
Its value is inactive: -19.9.

O=C(c1ccc(NCCO)cc1)C1C[C@H]1c1ccc(Cl)cc1 (stereo partly specified) was tested. Which “inhibition” value did it give?
The value was inactive: -9.36.

How did the “inhibition” value turn out when CCCCc1ccc(NC(=O)Nc2ccc(O[C@H]3CCCC[C@@H]3N(C)c3ccccc3)c(F)c2)cc1 was run?
The value was inactive: 1.07.

With Cc1ccc2oc(-c3cc(NC(=O)Cc4ccccc4)ccc3Cl)nc2c1 as the compound, how does the “inhibition” value read?
Its value is inactive: 1.27.

For O=C(NC1CCN(c2ccnc3ccccc23)C1)c1cccc(C(F)(F)F)c1 (stereo unspecified), which “inhibition” value is on record?
Its value is inactive: 1.61.

For CCCNC(=O)N1CCC2(CC1)CC(=O)c1cc(C)ccc1O2, which “inhibition” value is on record?
The value was inactive: -7.02.

For O=C(NCc1nnc2n1CCCCC2)c1ccc(-c2ccc(F)cc2)o1, which “inhibition” value is on record?
Its value is inactive: -2.92.

O=C(NCc1ccoc1)N1CCN(Cc2ccc3c(c2)OCO3)CC1 was tested. Which “inhibition” value did it give?
The value was inactive: 5.24.

For N#Cc1ccc(-c2ccc(OCC(N)=O)cc2)cc1, which “inhibition” value is on record?
The value was inactive: -0.199.

How did the “inhibition” value turn out when COc1ccc(OC(C)C(=O)Nc2ccc(Cl)cc2C)cc1 (stereo unspecified) was run?
The value was inactive: 5.64.

For O=C(Nc1ccc(F)c(-c2nc3cc(-c4ccccc4)cnc3[nH]2)c1)N1CCCC1, which “inhibition” value is on record?
Its value is inactive: -0.642.

Which “inhibition” value does the source give for Clc1ccc(CCNc2cc(-c3ccccc3)nc3ncnn23)cc1 here?
Its value is inactive: 5.23.

O=C(NC1CCCCC1)N1CCN(Cc2ccc3c(c2)OCO3)CC1 was tested. Which “inhibition” value did it give?
Its value is inactive: 1.43.

Same assay, conditions: 1 µM; injection port (sequential injection order): B

With CC(C)(C)C1CCC(CC2=C(O)C(=O)c3ccccc3C2=O)CC1 (stereo unspecified) as the compound, how does the “inhibition” value read?
The value was active: 98.8.

Cc1nnc(NC(=O)c2cn(-c3ccccc3)nc2-c2ccccc2C)o1 was tested. Which “inhibition” value did it give?
Its value is inactive: -11.7.

How did the “inhibition” value turn out when Nc1ccc2ncnc(Nc3ccc(OCc4cccc(F)c4)c(Cl)c3)c2c1 was run?
Its value is inactive: -2.71.

With FC(F)(F)c1ccc(N(c2cccnc2)C2CCN(c3ccc(C(F)(F)F)cn3)CC2)cc1 as the compound, how does the “inhibition” value read?
Its value is inactive: -12.

With O=C(Nc1ccc2c(c1)B(O)OC2)c1ccccc1C(F)(F)F as the compound, how does the “inhibition” value read?
Its value is inactive: 7.91.

With Cn1ncc2c(N3CCOCC3)nc(NCCc3c[nH]c4ccccc34)nc21 as the compound, how does the “inhibition” value read?
The value was inactive: 3.18.

For O=C(C(Cc1c[nH]c2ccccc12)NS(=O)(=O)c1ccc(Cl)cc1)N1CCCCC1 (stereo unspecified), which “inhibition” value is on record?
Its value is inactive: -11.2.

How did the “inhibition” value turn out when O=C(NCCN1CCCC1)c1cc(NCCCCN2CCC(F)(F)CC2)nc2ccc(Cl)cc12 was run?
Its value is inactive: -10.

Which “inhibition” value does the source give for COc1ccccc1C(C)NCC(=O)Nc1cc(C(F)(F)F)ccc1Cl (stereo unspecified) here?
The value was inactive: -6.07.

For Cc1cc(O)nc(-n2nc(C)cc2C)n1, which “inhibition” value is on record?
Its value is inactive: -10.5.

With Cc1nn(C(=O)Nc2cccc(C(F)(F)F)c2)c(C)c1Sc1ncccn1 as the compound, how does the “inhibition” value read?
Its value is inactive: -17.3.

With CNCCC(Oc1ccc(C(F)(F)F)cc1)c1ccccc1 (stereo unspecified) as the compound, how does the “inhibition” value read?
Its value is inactive: -2.19.

How did the “inhibition” value turn out when Cc1cc(Nc2ccc(C(F)(F)F)cc2)n2ccnc2n1 was run?
Its value is inactive: 1.44.
